No constants are given. Whether binding was seen depends on the method and setting. Binding seen in cells or lysates may run through a third protein. Some entries that bind do so weakly or less than the wild type.
Target: BAX (endogenous, MCF-7 cells) (human (endogenous in MCF-7)) (UniProt Q07812)
Assay: co-IP; MCF-7 cells treated with increasing concentrations of α-mangostin for 12 h; lysates in CHAPS buffer (20 mM Tris-HCl pH 7.5, 150 mM NaCl, 0.2% Nonidet P-40, 1 mM EDTA); polyclonal anti-BAX antibody N20 overnight at 4°C, Protein A agarose 4 h at 4°C; Western blot

By UniProt entry, the sequences of proteins in these tests, tags left out.
UniProt Q07812: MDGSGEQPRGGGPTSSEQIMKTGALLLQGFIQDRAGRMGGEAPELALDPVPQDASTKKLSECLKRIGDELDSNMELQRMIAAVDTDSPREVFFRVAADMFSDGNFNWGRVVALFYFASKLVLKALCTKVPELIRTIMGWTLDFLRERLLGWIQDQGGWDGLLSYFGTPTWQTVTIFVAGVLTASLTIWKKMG

binding: binds
B1: MOAP-1 (Modulator of apoptosis 1), endogenous, MCF-7 cells (protein, UniProt Q96BY2 1-351)
chain: MTLRLLEDWCRGMDMNPRKALLIAGISQSCSVAEIEEALQAGLAPLGEYRLLGRMFRRDENRKVALVGLTAETSHALVPKEIPGKGGIWRVIFKPPDPDNTFLSRLNEFLAGEGMTVGELSRALGHENGSLDPEQGMIPEMWAPMLAQALEALQPALQCLKYKKLRVFSGRESPEPGEEEFGRWMFHTTQMIKAWQVPDVEKRRRLLESLRGPALDVIRVLKINNPLITVDECLQALEEVFGVTDNPRELQVKYLTTYQKDEEKLSAYVLRLEPLLQKLVQRGAIERDAVNQARLDQVIAGAVHKTIRRELNLPEDGPAPGFLQLLVLIKDYEAAEEEEALLQAILEGNFT

— article PMC8786502
